# No constants are given. Whether binding was seen depends on the method and setting. For some assays here: Binding can be weak; no strength is given.
# How the values were obtained:
# [1] = target: T1, K-domain of SEP3 (SEP3^75-178) (A. thaliana) (UniProt O22456); assay: dynamic light scattering
# T1 sequence: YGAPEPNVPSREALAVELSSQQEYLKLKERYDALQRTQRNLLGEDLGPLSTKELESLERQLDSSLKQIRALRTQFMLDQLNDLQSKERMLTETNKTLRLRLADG
# … (A. thaliana) = target: T2, … (A. thaliana) (UniProt P48007); assay: two-hybrid
# T2 sequence: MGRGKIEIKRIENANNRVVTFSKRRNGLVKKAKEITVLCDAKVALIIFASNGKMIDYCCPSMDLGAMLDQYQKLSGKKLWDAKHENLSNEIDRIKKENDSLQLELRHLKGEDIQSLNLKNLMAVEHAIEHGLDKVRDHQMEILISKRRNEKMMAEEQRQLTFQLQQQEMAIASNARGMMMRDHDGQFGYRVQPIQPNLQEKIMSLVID
# APETALA3 (A. thaliana) = target: T3, APETALA3 (A. thaliana) (UniProt P35632); assay: two-hybrid
# T3 sequence: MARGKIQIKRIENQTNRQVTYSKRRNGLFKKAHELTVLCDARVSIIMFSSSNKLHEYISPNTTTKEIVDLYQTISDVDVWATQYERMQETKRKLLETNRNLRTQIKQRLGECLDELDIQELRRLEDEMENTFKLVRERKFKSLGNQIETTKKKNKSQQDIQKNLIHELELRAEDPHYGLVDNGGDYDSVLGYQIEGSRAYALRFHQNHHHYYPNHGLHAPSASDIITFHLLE
Substance,binding [1],binding (… (A. thaliana)),binding (APETALA3 (A. thaliana))
"SAP54 (purified, secreted part)",binds,,
SAP54 lacking the first predicted helix (amino acids 1-48 of the mature SAP54) (domain or fragment),,no binding,no binding
SAP54 lacking the putative turn region (amino acids 49-58),,no binding,no binding
SAP54 lacking the second predicted helix (amino acids 59-91) (domain or fragment),,no binding,no binding
SAP54-I69P,,no binding,no binding
SAP54-L27P,,no binding,no binding
SAP54-L65P,,no binding,no binding
SAP54Δ81-91 (domain or fragment),,no binding,no binding
SECRETED ASTER YELLOWS-WITCHES' BROOM PROTEIN 54 wildtype,,no binding,no binding

# From paper doi:10.1101/772699 (bioRxiv, 2019)
